Data reported in US20100247515A1.
Results are given in words; binding and its absence hold for the method and conditions named. Some results given as binding are weak or reduced against the parent protein; the word gives no strength.

Protein sequences, listed by entry. Tags and fused reporters are not part of them. Residues count along the entry.
UniProt P19438, residues 22-211: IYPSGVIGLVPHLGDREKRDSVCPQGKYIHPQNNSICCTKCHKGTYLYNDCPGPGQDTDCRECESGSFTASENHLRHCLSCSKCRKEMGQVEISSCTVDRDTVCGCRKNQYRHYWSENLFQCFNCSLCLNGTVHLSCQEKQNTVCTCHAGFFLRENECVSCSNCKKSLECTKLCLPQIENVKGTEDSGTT

Columns and labels:
[1] = target: human TNFR1 (soluble recombinant protein) (human) (UniProt P19438); assay: BIAcore, immobilized TNFR1, dAb 500 nM after incubation with trypsin 0-100 ug/ml (legend: overnight at 37 C; panel title: '100ug/ml Trypsin - 1hr')
[2] = target: human TNFR1 (soluble recombinant protein) (human) (UniProt P19438); assay: BIAcore after overnight elastase or leucozyme incubation
[3] = target: human TNFR1 (soluble recombinant protein) (human) (UniProt P19438); assay: BIAcore
[4] = target: human TNFR1 (soluble recombinant protein) (human) (UniProt P19438); assay: BIAcore, immobilized TNFR1, dAb without protease or after overnight incubation with elastase or leucozyme (text: 500 nM dAb, 100 ug/ml protease, 37 C)
[5] = target: human TNFR1 (soluble recombinant protein) (human) (UniProt P19438); assay: BIAcore after overnight trypsin incubation (0-100 µg/ml)
[6] = target: human TNFR1 (soluble recombinant protein) (human) (UniProt P19438); assay: BIAcore, biotinylated TNFR1 on SA chip, dAb 250 nM after 100 ug/ml trypsin, elastase or leucozyme for 1, 3 or 24 h at 30 C; response at 10 secs relative to dAb without protease, mean of three experiments

Measured: binding

B1: DOM1h-131-206 (protein)
VH: EVQLLESGGGLVQPGGSLRLSCAASGFTFAHETMVWVRQAPGKGLEWVSHIPPDGQDPFYADSVKGRFTISRDNSKNTLYLQMNSLRAEDTAVYHCALLPKRGPWFDYWGQGTLVTVSS
binds: all assays above
